{"source": "patent US12714678B2", "about": "“Peptides and methods of treating sepsis, atherosclerosis, thrombosis, stroke, heart attack and inflammation” (THE BOARD OF TRUSTEES OF THE UNIVERSITY OF ILLINOIS, priority 2019, dated 2026)", "key": {"C57BL/6 mice [1]": {"tested_on": "C57BL/6 mice", "assay": "Mouse myocardial ischemia and reperfusion (MI/R) model", "conditions": "vs scrambled peptide HLPN"}, "C57BL/6 mice [2]": {"tested_on": "C57BL/6 mice", "assay": "FeCl3-induced mouse carotid artery thrombosis model", "assay_type": "in vivo", "conditions": "vs saline control", "procedure": "The right carotid artery was isolated (34, 37). A MA-0.5SB nanoprobe (Transonic Systems, Ithaca, NY) was hooked to the carotid artery to monitor blood flow with a TS420 flowmeter (Transonic Systems) as previously described (38). After stabilization, carotid arterial thrombosis was induced with 7.5% ferric chloride (FeCl3) (Sigma Aldrich, St. Louis, MO), a filter paper disc (2 mm diameter) soaked with 1.2 μL of 7.5% FeCl3 was placed on top of the artery for 3 minutes, and then removed. M3mP6 HLPN, HLPN of scrambled control peptide, HLPN of a second control peptide carrying AAA mutation or physiological saline solution were injected 15 minutes before procedure retro-orbitally. […] To study the effect of post-injury drug injection on thrombosis development, the filter paper disc soaked with 1.2 μl 3.75% FeCl3 were placed on artery for 2 minutes, and drugs were injected retro-orbitally 3 minutes after removing the filter paper. Blood flow was monitored continuously until 5 minutes after occlusion or for 30 minutes if no occlusion occurred. Time to occlusion was defined as the time between the removal of the filter paper and stable occlusion (no blood flow for 2 minutes).\nEight- to 10-week-old C57BL/6 mice (20-25 g body weight) were anesthetized by isoflurane inhalation. […] Blood flow was monitored continuously until 5 minutes after occlusion or for 15 minutes if no occlusion occurred. […]"}, "C57BL/6 mice [3]": {"tested_on": "C57BL/6 mice", "assay": "Cecal ligation and puncture (CLP) sepsis model", "assay_type": "in vivo, mouse", "procedure": "CLP sepsis was induced as described previously (32, 33). In brief, mice (14- to 16-week-old with equal number of each gender) were anesthetized by intraperitoneal administration of ketamine (100 mg/kg body weight) and xylazine (8 mg/kg). After a midline laparotomy, the cecum was ligated at about 1 cm from the end and then subjected to a double “through and through” perforation with an 18-gauge needle. Sham-operated mice underwent the same procedure except for ligation and puncture of the cecum. After the procedure, an analgesic (buprenorphine, 0.1 mg/kg, s.c.) was given immediately and every 12 h thereafter for 3 d. At these time points, fluid resuscitation (prewarmed 0.9% NaCl, 0.05 ml/g body weight) was given through subcutaneous injection to prevent fluid loss and help the recovery of body temperature. One hour after surgery, antibiotic (Claforan® solution; 10 mg/kg body weight) was subcutaneously administrated (to mimic clinical conditions) for 5 days. The medication was continued until the situation of scheduled sacrifice, death, or study completion in the surviving mice. The survival of mice was observed every 6 h for 8 days and analyzed by the Log Rank test (using Prism GraphPad software (ver. 5.0), San Diego, CA, USA). For CLP-induced mouse organ injury, blood samples and kidney or lung tissues were collected 24 hours after CLP and subjected to cytokine and immunohistochemistry analyses.\nMice were weighed, anesthetized using ketamine/xylazine (100/5 mg/kg), and transferred to a heated platform under a dissection microscope. A 5 mm incision through the skin on the upper part of the mouse back was made posterior to the ears and between the scapulae. The mouse was then placed in a supine position and the skin over the right-side jugular vein was shaved and cleaned with hexachlorophene and 70% ethanol. After a vertical incision over the jugular site, the vein was dissected and exposed. The catheter was tunneled from the upper back incision to jugular incision through a trocar sleeve kit (DSI, St. Paul, MN). The jugular vein was carefully separated, and two sutures were drawn around vessel and tied loosely. Then, a small incision was made in the vein, the beveled catheter was inserted and tied in place with a suture, without closing off the catheter. The wound was closed using 6-0 suture and cleaned with hexachlorophene.\nTwenty-four hours after CLP, mouse blood was collected and added to an EDTA-rinsed microcentrifuge tube or citrate buffer. The plasma was obtained after centrifugation at 1,000 g at 4° C. for 5 minutes. In some case, mouse serum was collected from blood without adding any anti-coagulant. The kidney function markers BUN, creatinine and cystatin C and mouse liver function marker ALT were detected using corresponding kits according to the manufacturers' instructions. Septic mouse kidney, lung and liver tissue were collected from the sacrificed mice 24 hours after CLP, as well as from sham-operated mice and fixed in 10% formalin.\nMouse kidney and lung were collected 24 hours after CLP after perfusion with phosphate-buffered saline and then fixed in 10% formalin solution."}}, "note": "Where “and” joins values, the source holds several entries; their conditions need not be identical. Identical values can stand only once. Part of at least one peptide drawing is inferred or uncertain, most often the ends. Where a SMILES comes first, the peptide text is derived from it. The star is where a group is joined. Myristoyl = CCCCCCCCCCCCCC(=O)*"}
{"compound": "CCCCCCCCCCCCCC(=O)N[C@@H](Cc1ccccc1)C(=O)N[C@@H](CCC(=O)O)C(=O)N[C@@H](CCC(=O)O)C(=O)N[C@@H](CCC(=O)O)C(=O)N[C@@H](CCCNC(=N)N)C(=O)N[C@@H](CC(C)C)C(=O)O", "note": "[M3mP6 Peptide] (Myristoyl-FEEERL-OH)", "values": [{"measurement": "CLAUC", "setting": "FIG. 24", "value": "0.7 mL/min/kg and 1.4 mL/min/kg"}, {"measurement": "CLcss", "setting": "FIG. 24", "value": "0.8 mL/min/kg and 1.3 mL/min/kg"}, {"measurement": "Css", "setting": "FIG. 24", "value": "131.117 µg/mL and 77.621 µg/mL"}, {"measurement": "t1/2-λz", "setting": "FIG. 24", "value": "3.1 h and 3.9 h"}, {"measurement": "λz", "setting": "FIG. 24", "value": "0.223 h⁻¹ and 0.177 h⁻¹"}]}
{"compound": "CCCCCCCCCCCCCC(=O)N[C@@H](Cc1ccccc1)C(=O)N[C@@H](CCC(=O)O)C(=O)N[C@@H](CCC(=O)O)C(=O)N[C@@H](CCC(=O)O)C(=O)N[C@@H](CCCNC(=N)N)C(=O)N[C@@H](CC(C)C)C(=O)O", "note": "[M3mP6, Myr-FEEERL] (Myristoyl-FEEERL-OH; C-terminus assumed)", "values": [{"measurement": "mortality rate during 7-day post-procedure monitoring", "setting": "C57BL/6 mice [1]", "value": "greatly reduced"}, {"measurement": "effect on arterial/occlusive thrombosis in vivo", "setting": "C57BL/6 mice [2]", "value": "had no in vivo effect"}]}
{"compound": "CCCCCCCCCCCCCC(=O)N[C@@H](Cc1ccccc1)C(=O)N[C@@H](CCC(=O)O)C(=O)N[C@@H](CCCCN)C(=O)N[C@@H](CCC(=O)O)C(=O)N[C@@H](CCCCN)C(=O)N[C@@H](CC(C)C)C(=O)O", "note": "[MB2mP6, Myr-FEKEKL] (Myristoyl-FEKEKL-OH; C-terminus assumed)", "values": [{"measurement": "8-day survival rate, infusion started 6 hours after CLP onset", "setting": "C57BL/6 mice [3]; 1.25 μmol/kg/hour i.v.", "value": 42, "unit": "%"}, {"measurement": "CLP-induced microvascular thrombosis in septic mouse lungs", "setting": "C57BL/6 mice [3]; PTAH fibrin stain, 24 h", "value": "inhibits"}, {"measurement": "survival rate at 192 h (8 days), infusion immediately after CLP", "setting": "C57BL/6 mice [3]; bolus 2.5 μmol/kg then 1.25 μmol/kg/hour i.v.", "value": 71, "unit": "%"}, {"measurement": "mortality induced by sepsis", "setting": "C57BL/6 mice [3]; mouse, in vivo", "value": "reduced mortality"}, {"measurement": "IL-6 transcripts in septic mouse lung", "setting": "C57BL/6 mice [3]; real-time PCR", "value": "significantly suppressed"}, {"measurement": "TNFα transcripts in septic mouse lung", "setting": "C57BL/6 mice [3]; real-time PCR", "value": "significantly suppressed"}, {"measurement": "8-day survival probability, infusion started 6 hours after CLP", "setting": "C57BL/6 mice [3]; vs control group", "value": "significantly improved"}, {"measurement": "survival probability, infusion immediately after CLP", "setting": "C57BL/6 mice [3]; vs control peptide / saline groups", "value": "significant improvement in survival probability"}]}
